Data: PMC8429728, “TNK1 is a ubiquitin-binding and 14-3-3-regulated kinase that can be targeted to block tumor growth” (Nature Communications, 2021)
No constants are given. Whether binding was seen depends on the method and setting. Binding seen in cells or lysates may run through a third protein. A yes stands for co-enrichment or nearness to the bait. Other partners may have been found. Tags and fused reporters may be left off the sequences shown.

The chains behind the UniProt entries cited, without tags or fusion partners.
UniProt P31946: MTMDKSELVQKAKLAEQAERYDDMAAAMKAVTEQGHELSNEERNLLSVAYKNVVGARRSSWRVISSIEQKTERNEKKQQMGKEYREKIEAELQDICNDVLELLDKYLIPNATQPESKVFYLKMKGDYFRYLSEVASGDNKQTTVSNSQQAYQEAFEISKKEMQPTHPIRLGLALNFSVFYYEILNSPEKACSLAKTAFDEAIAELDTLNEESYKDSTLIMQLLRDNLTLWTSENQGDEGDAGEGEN
UniProt P62258: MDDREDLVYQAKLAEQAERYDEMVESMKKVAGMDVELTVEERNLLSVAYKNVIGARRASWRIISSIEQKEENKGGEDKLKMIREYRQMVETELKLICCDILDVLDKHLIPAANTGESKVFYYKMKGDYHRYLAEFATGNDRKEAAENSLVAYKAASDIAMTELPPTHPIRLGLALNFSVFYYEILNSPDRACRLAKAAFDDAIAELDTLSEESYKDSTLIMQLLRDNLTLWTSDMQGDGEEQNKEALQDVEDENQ

Assays:
TNK1-BirA-HA (human) = target: T1, TNK1-BirA-HA (human) (UniProt Q13470); assay: proximity labelling; BioID: TNK1-BirA-HA in HEK-293T, 50 nM biotin for 10 h, lysis in RIPA without SDS, streptavidin agarose, LC-MS/MS
T1 sequence: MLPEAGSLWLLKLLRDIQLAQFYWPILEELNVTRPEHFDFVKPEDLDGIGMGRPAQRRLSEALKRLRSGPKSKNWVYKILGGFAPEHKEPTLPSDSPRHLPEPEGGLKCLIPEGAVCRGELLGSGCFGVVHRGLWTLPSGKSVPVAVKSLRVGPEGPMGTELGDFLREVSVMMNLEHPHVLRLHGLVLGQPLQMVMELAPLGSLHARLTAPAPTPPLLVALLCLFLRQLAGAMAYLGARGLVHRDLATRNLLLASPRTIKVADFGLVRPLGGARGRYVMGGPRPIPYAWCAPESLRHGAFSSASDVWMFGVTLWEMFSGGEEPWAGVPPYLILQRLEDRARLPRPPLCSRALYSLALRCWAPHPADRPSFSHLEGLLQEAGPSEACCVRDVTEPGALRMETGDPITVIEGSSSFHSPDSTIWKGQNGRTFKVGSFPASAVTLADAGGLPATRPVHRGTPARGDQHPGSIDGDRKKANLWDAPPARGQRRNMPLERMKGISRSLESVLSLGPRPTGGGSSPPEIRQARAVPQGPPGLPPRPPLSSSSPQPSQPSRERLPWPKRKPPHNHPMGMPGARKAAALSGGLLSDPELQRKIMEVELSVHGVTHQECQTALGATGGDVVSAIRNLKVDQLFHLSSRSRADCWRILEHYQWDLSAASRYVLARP

[1] = target: T2, FLAG-TNK1 (wild type) (human) (UniProt Q13470); assay: affinity purification with mass spectrometry; direct co-IP of FLAG-TNK1 followed by LC-MS/MS
T2 sequence: T1 sequence

Row | binding (TNK1-BirA-HA (human)) | binding [1] | Substance
1 | binds | – | 14-3-3 β (from UniProt P31946 1-246)
2 | binds | binds | 14-3-3 ε (from UniProt P62258 1-255)
3 | binds | binds | 14-3-3 ζ (endogenous) (human (endogenous in HEK-293T))
